Laboratory results published in paper PMC7809202, “Identification of fidelity-governing factors in human recombinases DMC1 and RAD51 from cryo-EM structures” (Nature Communications, 2021).
Residue numbers refer to the chain shown, from its start. For at least one entry, the source does not settle the construct or the ends of the probe. At least one verdict was read from the data and is not stated in words by the source. For some of these results: Tags and fusion partners may be left off the protein sequences shown.

Amino acid sequences for entries named in this document (tags omitted).
UniProt Q06609, whole entry V273P/D274G: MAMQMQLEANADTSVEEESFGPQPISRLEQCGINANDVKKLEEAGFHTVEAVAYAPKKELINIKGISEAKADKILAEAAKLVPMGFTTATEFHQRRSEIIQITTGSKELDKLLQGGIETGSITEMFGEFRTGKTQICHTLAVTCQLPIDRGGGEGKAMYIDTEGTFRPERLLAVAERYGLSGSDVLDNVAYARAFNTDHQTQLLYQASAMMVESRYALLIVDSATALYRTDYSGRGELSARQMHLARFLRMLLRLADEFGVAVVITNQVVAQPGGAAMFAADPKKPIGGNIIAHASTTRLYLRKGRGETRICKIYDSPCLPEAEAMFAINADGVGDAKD
UniProt Q06609, whole entry: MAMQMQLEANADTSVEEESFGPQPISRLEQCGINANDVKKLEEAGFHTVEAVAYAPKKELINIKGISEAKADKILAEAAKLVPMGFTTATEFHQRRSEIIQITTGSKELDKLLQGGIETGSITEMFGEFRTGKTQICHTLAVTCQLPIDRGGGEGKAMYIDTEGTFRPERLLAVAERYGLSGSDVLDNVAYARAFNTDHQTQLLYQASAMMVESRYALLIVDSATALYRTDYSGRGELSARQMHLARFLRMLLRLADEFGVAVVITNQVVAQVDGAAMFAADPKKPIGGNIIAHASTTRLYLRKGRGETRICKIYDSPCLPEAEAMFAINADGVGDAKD
UniProt Q06609, whole entry M243Q/V273P/D274G: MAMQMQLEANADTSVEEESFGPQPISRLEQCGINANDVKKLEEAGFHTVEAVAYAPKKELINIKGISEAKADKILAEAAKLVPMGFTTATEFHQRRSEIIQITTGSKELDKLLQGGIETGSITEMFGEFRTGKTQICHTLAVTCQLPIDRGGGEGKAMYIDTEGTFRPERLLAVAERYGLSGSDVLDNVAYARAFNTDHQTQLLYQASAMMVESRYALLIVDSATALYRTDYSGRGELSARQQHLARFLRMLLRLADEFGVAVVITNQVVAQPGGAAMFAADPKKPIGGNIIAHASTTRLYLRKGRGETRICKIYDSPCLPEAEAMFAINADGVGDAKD
UniProt Q06609, whole entry M243Q: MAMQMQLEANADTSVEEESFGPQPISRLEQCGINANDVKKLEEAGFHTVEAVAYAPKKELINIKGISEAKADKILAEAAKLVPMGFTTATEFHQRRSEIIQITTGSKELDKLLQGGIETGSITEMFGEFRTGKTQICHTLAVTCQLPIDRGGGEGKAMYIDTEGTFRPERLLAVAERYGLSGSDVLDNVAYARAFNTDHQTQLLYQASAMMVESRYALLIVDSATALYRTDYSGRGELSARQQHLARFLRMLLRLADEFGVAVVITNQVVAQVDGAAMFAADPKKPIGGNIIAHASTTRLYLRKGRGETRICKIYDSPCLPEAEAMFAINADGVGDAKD

Assays:
[1] = target: RAD51-VpDg V273P,D274G (Homo sapiens) (UniProt Q06609); experiment: cryo-EM structure; settings: recombinant protein
RAD51 WT (Homo sapiens) = RAD51 WT (Homo sapiens) (UniProt Q06609); experiment: EMSA; settings: 2 mM ATP, 10 mM Mg2+, EMSA: 35 mM Tris-HCl pH 7.5, 1 mM DTT, 10 mM MgCl2, 100 ng/ul BSA, 50 mM KCl, 37 °C 10 min, DNA 3 uM nucleotides or base pairs, recombinant protein
DMC1 WT (Homo sapiens) = target: T1, DMC1 WT (Homo sapiens) (UniProt Q14565); experiment: EMSA; settings: 2 mM ATP, 10 mM Mg2+, EMSA: 35 mM Tris-HCl pH 7.5, 1 mM DTT, 10 mM MgCl2, 100 ng/ul BSA, 50 mM KCl, 37 °C 10 min, DNA 3 uM nucleotides or base pairs, recombinant protein
T1 sequence (looked up, limits assumed): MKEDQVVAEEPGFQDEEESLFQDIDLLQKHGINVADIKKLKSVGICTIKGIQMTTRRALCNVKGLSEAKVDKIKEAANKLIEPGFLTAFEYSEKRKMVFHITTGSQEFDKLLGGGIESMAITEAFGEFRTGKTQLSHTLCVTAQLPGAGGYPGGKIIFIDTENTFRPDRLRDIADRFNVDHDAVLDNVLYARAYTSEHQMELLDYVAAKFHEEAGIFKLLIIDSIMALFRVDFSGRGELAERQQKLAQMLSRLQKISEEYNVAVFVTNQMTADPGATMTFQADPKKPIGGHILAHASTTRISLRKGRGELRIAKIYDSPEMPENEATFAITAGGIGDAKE

[2] = target: T2, DMC1-Q244M (Qm) (Homo sapiens) (UniProt Q14565); experiment: EMSA; settings: 2 mM ATP, 10 mM Mg2+, comparable to WT, EMSA: 35 mM Tris-HCl pH 7.5, 1 mM DTT, 10 mM MgCl2, 100 ng/ul BSA, 50 mM KCl, 37 °C 10 min, DNA 3 uM nucleotides or base pairs, recombinant protein
T2 sequence (looked up, limits assumed): T1 sequence (looked up, limits assumed) with Q244M

[3] = target: RAD51-VpDg V273P,D274G (Homo sapiens) (UniProt Q06609); experiment: EMSA; settings: 2 mM ATP, 10 mM Mg2+, comparable to WT, EMSA: 35 mM Tris-HCl pH 7.5, 1 mM DTT, 10 mM MgCl2, 100 ng/ul BSA, 50 mM KCl, 37 °C 10 min, DNA 3 uM nucleotides or base pairs, recombinant protein
[4] = target: RAD51-MqVpDg M243Q,V273P,D274G (Homo sapiens) (UniProt Q06609); experiment: EMSA; settings: 2 mM ATP, 10 mM Mg2+, comparable to WT, EMSA: 35 mM Tris-HCl pH 7.5, 1 mM DTT, 10 mM MgCl2, 100 ng/ul BSA, 50 mM KCl, 37 °C 10 min, DNA 3 uM nucleotides or base pairs, recombinant protein
[5] = target: RAD51-M243Q (Mq) (Homo sapiens) (UniProt Q06609); experiment: EMSA; settings: 2 mM ATP, 10 mM Mg2+, comparable to WT, EMSA: 35 mM Tris-HCl pH 7.5, 1 mM DTT, 10 mM MgCl2, 100 ng/ul BSA, 50 mM KCl, 37 °C 10 min, DNA 3 uM nucleotides or base pairs, recombinant protein
[6] = protein details: His6, label: 5'-32P on Oligo 1
[7] = label: 5'-32P (EMSA), single-stranded DNA
[8] = protein details: His6, label: 5'-32P (EMSA), single-stranded DNA

Measured: binding result

ACGGGCAACAGCTGA (double strand) [Oligo 3/Oligo 4 15 bp homologous dsDNA]
binds: [1]

TTATGTTCATTTTTTATATCCTTTACTTTATTTTCTCTGTTTATTCATTTACTTATTTTGTATTATCCTTATCTTATTTA (double strand) [Oligo 1/Oligo 2 80 bp dsDNA]
binds: RAD51 WT (Homo sapiens); label: 5'-32P on Oligo 1 | DMC1 WT (Homo sapiens); [6] | [2]; [6] | [3]; label: 5'-32P on Oligo 1 | [4]; label: 5'-32P on Oligo 1 | [5]; label: 5'-32P on Oligo 1

TTATGTTCATTTTTTATATCCTTTACTTTATTTTCTCTGTTTATTCATTTACTTATTTTGTATTATCCTTATCTTATTTA [Oligo 1 80-mer ssDNA]
binds: RAD51 WT (Homo sapiens); [7] | DMC1 WT (Homo sapiens); [8] | [2]; [8] | [3]; [7] | [4]; [7] | [5]; [7]
